Test results reported in PubChem BioAssay AID2685 (National Center for Advancing Translational Sciences (NCATS), 2010).
This is one part of the list. The main result of the screen is listed elsewhere. These columns were measured beside it and carry no call. Compounds called inactive in the main read-out are mostly missing here. Words in brackets tell the shape of the fitted curve; partial curves, single points and poor fits give uncertain potencies.

Assay: qHTS Assay for Lipid Storage Modulators in Drosophila S3 Cells;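 on cell number change: cells counted by Cell Tracker Red CMTPX staining in the red channel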
Conditions: BODIPY lipid droplet fluorescence, 18-24 h; for cell number change: measured here: cell count max response, cells fed with added oleic acid
How it was run: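 Drosophila S3 cells loaded with oleic acid (400 uM, as added) and compounds at several concentrations; lipid droplets imaged by 488-nm laser-scanning cytometry, 500–530 nm intensity and object ratio to cell channel. Percent activity normalized to 20 uM Triacsin C.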

[1] = measured here: cell number channel AC50, cells fed with added oleic acid
[2] = measured here: lipid fluorescence (Fed channel) AC50, cells fed with added oleic acid

Row | SMILES | cell number change | AC50 [1] | AC50 [2]
1 | CC(CCc1ccccc1)NC(=O)C(Cc1ccccc1)NS(=O)(=O)c1cccs1 (centres undefined) | 39.6% | 9.2 µM [rising, partial curve, poor fit] | 
2 | CCN(c1cccc(C)c1)S(=O)(=O)c1ccc2[nH]c(=O)c(=O)[nH]c2c1 |  |  | 20.6 µM [falling, partial curve]
3 | O=C(COC(=O)c1ccc2c(=O)n3c(nc2c1)CCC3)Nc1ccc(OC(F)F)cc1 | 12.3% |  | 
4 | COc1ccc(Cc2nc3ccc(C(=O)N(C)Cc4cc(C)[nH]n4)cc3o2)cc1OC | 3.67% |  | 
5 | COc1cc(/C=N/NC(=O)CSc2nc3ccccc3n2C)cc(OC)c1OC |  |  | 0.411 µM [rising, single point]
6 | O=[N+]([O-])c1ccc2cn(-c3ccccc3)nc2c1 |  |  | 32.6 µM [falling, single point]
7 | CCOc1ccc(NC(=O)CN(C)C(=O)c2csc3c2CCCC3)cc1OCC | 4.54% |  | 0.651 µM [rising, partial curve]
8 | COC(=O)c1ccc(-n2nnnc2SCC(=O)NCc2cccc(C(=O)O)c2)cc1 | 16.8% |  | 18.4 µM [falling, single point]
9 | COc1ccc(-c2cc(C(F)(F)F)n3nc(C(=O)O)cc3n2)cc1OC | -10.3% |  | 
10 | Cc1c(OCC(=O)OC(C)C)ccc2c3c(c(=O)oc12)CCC3 | 9.04% | 6.51 µM [falling, single point] | 
11 | Cc1ccc(-n2nnc3c(=O)n(CC(=O)NCc4ccco4)cnc32)cc1 | -14.7% | 1.3 µM [rising, full curve, poor fit] | 
12 | Cc1cc(C)c(C#N)c(SCSCc2ccccc2)n1 | 330% | 14.6 µM [rising, partial curve] | 29.1 µM [rising, partial curve]
13 | CCCOc1ccc(OC(=O)Cc2ccc(OC)c(S(=O)(=O)N3CCOCC3)c2)cc1 | -31.9% | 20.6 µM [falling, single point] | 20.6 µM [falling, single point]
14 | Cc1cc(-c2ccc(C)c(S(=O)(=O)NCCCN3CCN(c4ccccc4F)CC3)c2)on1 | -22.1% |  | 20.6 µM [falling, single point]
15 | C=CCSc1nnc(-c2cccnc2)o1 | -23.5% |  | 29.1 µM [falling, single point]
16 | CN(C)S(=O)(=O)c1ccc(NC(=O)C2COc3ccccc3O2)cc1 (centres undefined) | -28.8% |  | 29.1 µM [falling, single point]
17 | O=C(COC(=O)Cn1cc(C(F)(F)F)ccc1=O)NCc1ccccc1 | 10.5% |  | 
18 | Cc1cnc(NC(=O)Nc2ccc(Cl)cc2)s1 | -36.6% | 29.1 µM [falling, single point] | 29.1 µM [falling, single point]
19 | COc1cccc(CNC(=O)c2ccc(NC(=O)C3=CSCCO3)cc2)c1 | 1.14% |  | 11.6 µM [rising, single point]
20 | CCn1c(O)c(N=NC(=O)Cn2ccc(C(F)(F)F)n2)c2ccccc21 | -47.1% |  | 6.51 µM [rising, full curve]

An excerpt of these results, tab-delimited.
Row	SMILES	cell number change	AC50 [1]	AC50 [2]
4	COc1ccc(Cc2nc3ccc(C(=O)N(C)Cc4cc(C)[nH]n4)cc3o2)cc1OC	3.67%		
5	COc1cc(/C=N/NC(=O)CSc2nc3ccccc3n2C)cc(OC)c1OC			0.411 µM [rising, single point]

Later entries

Row | SMILES | cell number change | AC50 [1] | AC50 [2]
21 | CCc1ccc(NC(=S)NC2CCN(Cc3ccccc3)CC2)cc1 | -2.97% |  | 25.9 µM [falling, partial curve, poor fit]
22 | O=C(Cc1c(F)cccc1Cl)NNC(=S)Nc1ccc(S(=O)(=O)Nc2ncccn2)cc1 | 8.36% |  | 31.6 µM [rising, single point]
23 | Cc1ccc(-n2c(C)nc3c(cnn3-c3ccc(F)cc3)c2=O)cc1 | -23.6% |  | 20.6 µM [falling, partial curve]
24 | Cn1cc(Cl)c(C(=O)NC(=S)Nc2sc3c(c2C#N)CCCCC3)n1 | 29.5% | 1.16 µM [rising, full curve] | 4.11 µM [rising, partial curve]
25 | Cc1ccccc1NC(=O)COC(=O)c1cccc(S(=O)(=O)N2CCCCC2)c1 | -12.7% |  | 3.26 µM [rising, single point]
26 | Cc1ccc2c(CC(=O)Nc3nc(C)cs3)coc2c1 | -20.4% |  | 
27 | c1csc(CNc2nc3ccccc3n2CCN2CCOCC2)c1 | -2.59% |  | 0.58 µM [falling, single point]
28 | COC(=O)c1cc(NC(=S)N2CCN(C(=O)C3CCCO3)CC2)cc(C(=O)OC)c1 (centres undefined) | -19.2% |  | 0.366 µM [falling, partial curve, poor fit]
29 | C=CCn1c(SCC(=O)N2CCOCC2)nc2ccccc2c1=O | -15.6% |  | 29.1 µM [rising, single point]
30 | NC(=O)c1cc(Cc2ccccc2)sc1NC(=O)c1ccco1 |  | 2.06 µM [rising, partial curve] | 
31 | COc1ccccc1-c1cc2nc(C)c(CCC(=O)NCc3ccco3)c(C)n2n1 | 40% | 29.1 µM [rising, single point] | 0.58 µM [rising, single point]
32 | CCN(CCO)c1ncnc2c1sc1nc(C(C)C)c3c(c12)CC(C)(C)OC3 | -31.6% | 20.6 µM [falling, single point] | 23.1 µM [rising, partial curve, poor fit]
33 | Cc1cc(C)n2nc(-c3ccc(Cl)cc3)cc2n1 | 18.1% |  | 0.58 µM [rising, single point]
34 | CCOC(=O)[C@H](O)[C@@H](O)c1cccc([C@H](O)[C@@H](O)C(=O)OCC)c1 | 9.71% |  | 
35 | Cc1ccc(NC2=C(NCCO)C(=O)c3ccccc3C2=O)cc1 | -80.3% | 5.17 µM [falling, full curve] | 4.61 µM [falling, partial curve]
36 | CC1CN(c2ccc(NC(=O)c3ccco3)cc2C(=O)O)CC(C)O1 (centres undefined) | 12.7% | 6.51 µM [falling, single point] | 5.8 µM [falling, single point]
37 | CCCCOc1ccc(CNC(=O)NS(=O)(=O)c2ccc(OCC)cc2)cc1 | 17.2% |  | 
38 | Fc1ccc(-c2c[nH]c(=S)n2Cc2ccccc2)cc1 | -17.1% | 0.731 µM [falling, single point] | 
39 | O=C1C2C(C(=O)N1/N=C/c1ccc([N+](=O)[O-])o1)C1C=CC2C12CC2 (centres undefined) | -22.7% |  | 11.6 µM [falling, partial curve, poor fit]
40 | O=C(COC(=O)CCc1c[nH]c(=O)[nH]1)Nc1cccc(Cl)c1 | -82.5% | 1.84 µM [falling, full curve] | 1.84 µM [falling, full curve]

2 of these compounds, reformatted.
Cc1ccccc1NC(=O)COC(=O)c1cccc(S(=O)(=O)N2CCCCC2)c1
  cell number change: -12.7%
  AC50 [2]: 3.26 µM [rising, single point]
Cc1ccc2c(CC(=O)Nc3nc(C)cs3)coc2c1
  cell number change: -20.4%

(listing goes on)

Row | SMILES | cell number change | AC50 [1] | AC50 [2]
41 | CCOc1ccc(-c2nnn(CC(=O)NCc3ccc(F)cc3)n2)cc1OCC | 9.81% |  | 3.26 µM [rising, partial curve]
42 | CCCCCC/C(C=O)=C\c1ccccc1 | -41.8% | 29.1 µM [falling, single point] | 
43 | Cc1cccc(NC(=O)Nc2ccccn2)c1C | 24% | 0.103 µM [rising, full curve, poor fit] | 0.92 µM [rising, full curve, poor fit]
44 | CN(C)C(=O)c1nnc(Cc2ccc(Cl)cc2)o1 | -0.308% |  | 0.00461 µM [rising, full curve, poor fit]
45 | COc1ccccc1-n1cc(C(=O)NCC(=O)N2CCN(c3ccccn3)CC2)c2ccccc2c1=O | 12.6% | 1.46 µM [rising, partial curve, poor fit] | 
46 | CCN1C(=O)C(=O)N(CC(=O)Nc2cc(C)ccc2C)C1=O | -22.4% |  | 16.4 µM [falling, partial curve, poor fit]
47 | COCc1cc(/C=N\NC(=O)COc2ccccc2)ccc1OC |  |  | 2.59 µM [rising, single point]
48 | COc1cccc(/C=N/NC(=O)C(=O)N2CCCCCC2)c1OC | 20.8% |  | 29.1 µM [rising, single point]
49 | Cc1ccccc1NC(=O)c1snc2c(=O)[nH]cnc12 | 26.3% |  | 
50 | CCn1c(C)nc2cc(C(=O)NNC(=S)Nc3ccc(Cl)cc3Cl)ccc21 | -0.145% | 0.146 µM [falling, full curve, poor fit] | 0.116 µM [falling, full curve, poor fit]
51 | CCC(=O)Nn1cnc2c(c1=O)C1(CCCCC1)Cc1ccccc1-2 | 56.5% | 9.2 µM [rising, partial curve] | 4.11 µM [rising, partial curve]
52 | COc1ccc(CN=C(Nc2ccccc2)SC2CC(=O)N(C)C2=O)cc1 (centres undefined) | 32.5% | 5.8 µM [rising, partial curve] | 
53 | Cc1cc(C)cc(NC(=O)Nc2cc(S(=O)(=O)N(C)C)ccc2C)c1 | -18.2% |  | 32.6 µM [falling, single point]
54 | CC(C)CC(=O)NC(=S)Nc1ccc(N2CCOCC2)cc1 | -6.94% |  | 0.13 µM [falling, full curve, poor fit]
55 | C/C(=N\NC(=S)NC1CCCCC1)c1ccc(C)o1 | 35.7% | 0.00461 µM [rising, full curve, poor fit] | 6.51 µM [falling, partial curve, poor fit]
56 | COc1ccc(-c2[nH]ncc2CN(C)CC2CCCCO2)cc1F (centres undefined) | 9.19% |  | 
57 | COc1cccc(C(=O)NC(=S)Nc2ccc(N(C)C)cc2)c1 |  |  | 18.4 µM [rising, single point]
58 | CON(C)c1nc(NCC(C)C)nc(OCC#N)n1 | 17.7% |  | 14.6 µM [rising, partial curve]
59 | CCn1c(SCC(=O)Nc2cc(C)on2)nnc1-c1ccc(C)cc1 | 5.26% |  | 5.62 µM [falling, single point]
60 | Cc1nn(C(C)(C)C)c(OC(=O)c2cccs2)c1Sc1ccccc1 | -40.5% | 0.146 µM [falling, full curve, poor fit] | 1.3 µM [falling, full curve]
